From article doi:10.1101/2021.06.30.450611
Numbering of substitutions follows the chain as printed. Names and notes keep the numbering of the source. These are yes or no findings as the source states them, for the method shown. Binding calls can cover weak binding; strength is not graded here. Where a sequence is shown, tags or fusion partners need not be part of it.

Target: microtubules of the optical trapping experiments
Assay: single bead optical trap

B1: full-length recombinant human KIF1C-GFP (wildtype) (protein, UniProt O43896 1-1103)
chain: MAGASVKVAVRVRPFNARETSQDAKCVVSMQGNTTSIINPKQSKDAPKSFTFDYSYWSHTSTEDPQFASQQQVYRDIGEEMLLHAFEGYNVCIFAYGQTGAGKSYTMMGRQEPGQQGIVPQLCEDLFSRVSENQSAQLSYSVEVSYMEIYCERVRDLLNPKSRGSLRVREHPILGPYVQDLSKLAVTSYADIADLMDCGNKARTVAATNMNETSSRSHAVFTIVFTQRCHDQLTGLDSEKVSKISLVDLAGSERADSSGARGMRLKEGANINKSLTTLGKVISALADMQSKKRKSDFIPYRDSVLTWLLKENLGGNSRTAMIAALSPADINYEETLSTLRYADRTKQIRCNAIINEDPNARLIRELQEEVARLRELLMAQGLSASALEGLKTEEGSVRGALPAVSSPPAPVSPSSPTTHNGELEPSFSPNTESQIGPEEAMERLQETEKIIAELNETWEEKLRKTEALRMEREALLAEMGVAVREDGGTVGVFSPKKTPHLVNLNEDPLMSECLLYHIKDGVTRVGQVDMDIKLTGQFIREQHCLFRSIPQPDGEVVVTLEPCEGAETYVNGKLVTEPLVLKSGNRIVMGKNHVFRFNHPEQARLERERGVPPPPGPPSEPVDWNFAQKELLEQQGIDIKLEMEKRLQDLENQYRKEKEEADLLLEQQRLYADSDSGDDSDKRSCEESWRLISSLREQLPPTTVQTIVKRCGLPSSGKRRAPRRVYQIPQRRRLQGKDPRWATMADLKMQAVKEICYEVALADFRHGRAEIEALAALKMRELCRTYGKPDGPGDAWRAVARDVWDTVGEEEGGGAGSGGGSEEGARGAEVEDLRAHIDKLTGILQEVKLQNSSKDRELQALRDRMLRMERVIPLAQDHEDENEEGGEVPWAPPEGSEAAEEAAPSDRMPSARPPSPPLSSWERVSRLMEEDPAFRRGRLRWLKQEQLRLQGLQGSGGRGGGLRRPPARFVPPHDCKLRFPFKSNPQHRESWPGMGSGEAPTPLQPPEEVTPHPATPARRPPSPRRSHHPRRNSLDGGGRSRGAGSAQPEPQHFQPKKHNSYPQPPQPYPAQRPPGPRYPPYTTPPRMRRQRSAPDLKESGAAV
Question: How did the binding turn out when B1 was run?
Answer: binds

B2: full-length recombinant human KIF1C(P176L)-GFP (protein, UniProt O43896 1-1103)
chain: B1 chain with P176L
Question: With B2 as the binder, how does the binding read?
Answer: binds

B3: full-length recombinant human KIF1C(R169W)-GFP (protein, UniProt O43896 1-1103)
chain: B1 chain with R169W
Question: For B3, which binding is on record?
Answer: binds
